# Test results taken from the supplement of paper PMC11732987, “Enantioselective OTUD7B fragment discovery through chemoproteomics screening and high-throughput optimisation” (Communications Chemistry, 2025).
# The list shows a part of the results. The data scatter; read single values as rough.
# Compound: ClCC(=O)N[C@@H]1CCCc2ccccc12
# Experiment: log2 mean competition ratio of IA-DTB cysteine labelling (DMSO/compound) (log2 ratio); higher = stronger cysteine engagement by compound
# Settings: 50 µM; treatment time: 4 h; cell line lysate: HEK293T
# Procedure: (§1)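 IA-DTB competitive cysteine chemoproteomics in HEK293T RIPA lysate. Lysates were treated with compound 29 or 30 at 50 or 200 µM for 4 h, then IA-DTB (500 µM, 1 h), trypsin-digested, NeutrAvidin-enriched and analysed by diaPASEF. Competition ratio = intensity DMSO / intensity compound (n=4 treated, n=64 DMSO); binding: mean log2 CR ≥ 1 and p ≤ 0.05 plus QC filters. Target is the cysteine site.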
row,Target,log2 mean competition ratio
1,HECTD1 C2275 (UniProt Q9ULT8),-0.116
2,GUF1 C221 (UniProt Q8N442),-0.298
3,HDLBP C948,0.262
4,HOXB6 C184,0.0983
5,GTF3C1 C1681 (UniProt Q12789),-0.0386
6,HECTD4 C3836,-0.248
7,GTF3C5 C26 (UniProt Q9Y5Q8),-0.107
8,HIRIP3 C86 (UniProt Q9BW71),-0.00312
9,HBS1L C504 (UniProt Q9Y450),0.134
10,HNRNPA2B1 C50 (UniProt P22626),-0.0278
11,HBS1L C491 (UniProt Q9Y450),-0.178
12,HINT1 C84 (UniProt P49773),-0.183
13,HARS2 C225 (UniProt P49590),-0.238
14,HEATR5A C1635 (UniProt Q86XA9),-0.301
15,GSTM3 C178 (UniProt P21266),-0.00295
16,HAUS6 C185 (UniProt Q7Z4H7),-0.186
17,HK2 C517 (UniProt P52789),-0.248
18,GZF1 C282 (UniProt Q9H116),-0.192
19,HECTD1 C507 (UniProt Q9ULT8),-0.302

row,Target,log2 mean competition ratio
1,HEXIM2 C80 (UniProt Q96MH2),0.626
2,HEXIM2 C10 (UniProt Q96MH2),-0.404
3,HNRNPU C562 (UniProt Q00839),0.239
4,HEATR1 C1237 (UniProt Q9H583),-0.274
5,HAUS5 C12 (UniProt O94927),0.111
6,GTF3C4 C441 (UniProt Q9UKN8),-0.17
7,HNRNPU C607 (UniProt Q00839),0.0229
8,HNRNPA3 C196 (UniProt P51991),-0.144
9,HELB C646 (UniProt Q8NG08),-0.0492
10,HAUS6 C323 (UniProt Q7Z4H7),-0.0975
11,HDAC2 C417 (UniProt Q92769),0.299
12,HELB C608 (UniProt Q8NG08),-0.0385
13,HIBCH C336 (UniProt Q6NVY1),-0.148
14,H3-7 C111,0.147
15,HOXA11 C200,-0.12
16,HDLBP C636,-0.103
17,HELZ2 C1545 (UniProt Q9BYK8),-0.0422
18,GTF3C4 C764 (UniProt Q9UKN8),0.516

# Same assay, conditions: 200 µM; treatment time: 4 h; cell line lysate: HEK293T
row,Target,log2 mean competition ratio
1,HECTD1 C2275 (UniProt Q9ULT8),-0.211
2,GUF1 C221 (UniProt Q8N442),-0.0374
3,HDLBP C948,0.186
4,HOXB6 C184,0.177
5,GTF3C1 C1681 (UniProt Q12789),-0.0956
6,HECTD4 C3836,-0.0802
7,GTF3C5 C26 (UniProt Q9Y5Q8),-0.195
8,HIRIP3 C86 (UniProt Q9BW71),0.335
9,HBS1L C504 (UniProt Q9Y450),-0.129
10,HNRNPA2B1 C50 (UniProt P22626),0.0958
11,HBS1L C491 (UniProt Q9Y450),-0.305
12,HINT1 C84 (UniProt P49773),-0.17
13,HARS2 C225 (UniProt P49590),0.159
14,HEATR5A C1635 (UniProt Q86XA9),-0.12
15,GSTM3 C178 (UniProt P21266),-0.142
16,HAUS6 C185 (UniProt Q7Z4H7),0.178
17,HK2 C517 (UniProt P52789),-0.148
18,GZF1 C282 (UniProt Q9H116),0.194
19,HECTD1 C507 (UniProt Q9ULT8),0.11

row,Target,log2 mean competition ratio
1,HEXIM2 C80 (UniProt Q96MH2),-0.228
2,HEXIM2 C10 (UniProt Q96MH2),-0.0918
3,HNRNPU C562 (UniProt Q00839),-0.101
4,HEATR1 C1237 (UniProt Q9H583),0.188
5,HAUS5 C12 (UniProt O94927),-0.0627
6,GTF3C4 C441 (UniProt Q9UKN8),-0.178
7,HNRNPU C607 (UniProt Q00839),-0.336
8,HNRNPA3 C196 (UniProt P51991),-0.125
9,HELB C646 (UniProt Q8NG08),-0.0406
10,HAUS6 C323 (UniProt Q7Z4H7),-0.147
11,HDAC2 C417 (UniProt Q92769),-0.547
12,HELB C608 (UniProt Q8NG08),-0.0992
13,HIBCH C336 (UniProt Q6NVY1),0.178
14,H3-7 C111,-0.307
15,HOXA11 C200,-0.0304
16,HDLBP C636,0.144
17,HELZ2 C1545 (UniProt Q9BYK8),0.444
18,GTF3C4 C764 (UniProt Q9UKN8),0.381

# Compound: ClCC(=O)N[C@H]1CCCc2ccccc12
# Experiment: as above
# Settings: 50 µM; treatment time: 4 h; cell line lysate: HEK293T
# Procedure: as §1
row,Target,log2 mean competition ratio
1,HECTD1 C2275 (UniProt Q9ULT8),-0.401
2,GUF1 C221 (UniProt Q8N442),-0.106
3,HDLBP C948,0.315
4,HOXB6 C184,0.167
5,GTF3C1 C1681 (UniProt Q12789),0.208
6,HECTD4 C3836,-0.0542
7,GTF3C5 C26 (UniProt Q9Y5Q8),-0.275
8,HIRIP3 C86 (UniProt Q9BW71),-0.204
9,HBS1L C504 (UniProt Q9Y450),-0.835
10,HNRNPA2B1 C50 (UniProt P22626),-0.454
11,HBS1L C491 (UniProt Q9Y450),0.121
12,HINT1 C84 (UniProt P49773),0.302
13,HARS2 C225 (UniProt P49590),-0.36
14,HEATR5A C1635 (UniProt Q86XA9),-0.245
15,GSTM3 C178 (UniProt P21266),-0.279
16,HAUS6 C185 (UniProt Q7Z4H7),-0.133
17,HK2 C517 (UniProt P52789),0.0918
18,GZF1 C282 (UniProt Q9H116),-0.242
19,HECTD1 C507 (UniProt Q9ULT8),-0.395

row,Target,log2 mean competition ratio
1,HEXIM2 C80 (UniProt Q96MH2),0.426
2,HEXIM2 C10 (UniProt Q96MH2),0.0378
3,HNRNPU C562 (UniProt Q00839),0.261
4,HEATR1 C1237 (UniProt Q9H583),0.049
5,HAUS5 C12 (UniProt O94927),0.438
6,GTF3C4 C441 (UniProt Q9UKN8),-0.273
7,HNRNPU C607 (UniProt Q00839),0.477
8,HNRNPA3 C196 (UniProt P51991),-0.492
9,HELB C646 (UniProt Q8NG08),0.0643
10,HAUS6 C323 (UniProt Q7Z4H7),-0.128
11,HDAC2 C417 (UniProt Q92769),-0.0235
12,HELB C608 (UniProt Q8NG08),-0.211
13,HIBCH C336 (UniProt Q6NVY1),-0.146
14,H3-7 C111,0.265
15,HOXA11 C200,0.0869
16,HDLBP C636,0.0952
17,HELZ2 C1545 (UniProt Q9BYK8),-0.424
18,GTF3C4 C764 (UniProt Q9UKN8),0.00585
